Some results were stated once for a whole list of compounds, not compound by compound.
Each compound was assayed on HCT-116 cells (assay: HCT-116 cell viability, MTS assay). Conditions: 96-h incubation.
Assay type: cell-based
Procedure: HCT-116 cell viability was examined by the MTS assay (Promega, Madison, Wis., USA). 2000 HCT-116 cells in 100 μL McCoy's 5a medium were seeded in each well of a 96-well plate. After 96-h incubation with a test compound, the cells were incubated with 20 μL of a MTS/PMS mixture (MTS/PMS ratio: 20:1) for 2 h at 37° C. in a humidified incubator with 5% CO2 to allow viable cells to convert the tetrazolium salt (MTS) into formazan. The amount/concentration of formazan, which indicates the number of live cells, was determined by measuring the absorbance at 490 nm using a PerkinElmer Victor2 plate reader (PerkinElmer, Shelton, Conn., USA).
`CN(C)CCCOc1ccc2c(NCCc3ccc(NC(=O)Nc4cccc(F)c4)cc3)ncnc2c1` [Compound 208] gave an IC50 of less than 100 nM.
For `CCN(CCO)CCCOc1ccc2c(NCCc3ccc(NC(=O)Nc4cccc(F)c4)cc3)ncnc2c1` [Compound 209], the IC50 was less than 100 nM.
`O=C(Nc1ccccc1)Nc1ccc(CCNc2ncnc3oc(-c4ccncc4)nc23)cc1` [Compound 235] showed an IC50 of less than 100 nM.

Source: US9006252B2, “Fused multicyclic compounds as protein kinase inhibitors” (National Health Research Institutes, priority 2008, dated 2015)
